Reference: publication PMC10933344, “A lncRNA Dleu2-encoded peptide relieves autoimmunity by facilitating Smad3-mediated Treg induction” (EMBO Reports, 2024)
Results are given in words; binding and its absence hold for the method and conditions named. In cells and extracts the contact can be indirect. Some entries that bind do so weakly or less than the wild type.

The chains behind the UniProt entries cited, without tags or fusion partners.
UniProt Q8BUN5: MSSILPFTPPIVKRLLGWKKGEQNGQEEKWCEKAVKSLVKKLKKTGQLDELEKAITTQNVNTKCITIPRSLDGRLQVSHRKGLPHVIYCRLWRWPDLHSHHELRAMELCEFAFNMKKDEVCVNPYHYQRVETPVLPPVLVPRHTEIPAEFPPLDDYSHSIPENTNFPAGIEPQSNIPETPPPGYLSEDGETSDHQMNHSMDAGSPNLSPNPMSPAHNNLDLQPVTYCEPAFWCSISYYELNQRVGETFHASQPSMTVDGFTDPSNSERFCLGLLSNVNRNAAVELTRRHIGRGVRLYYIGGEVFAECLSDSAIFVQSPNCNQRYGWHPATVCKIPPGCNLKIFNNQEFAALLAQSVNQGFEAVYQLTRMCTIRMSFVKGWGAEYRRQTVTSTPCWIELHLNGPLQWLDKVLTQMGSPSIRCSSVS

Biological target: T1, Biotin-labeled Dleu2-17aa (mouse)
T1 sequence (peptide, biotin (position not stated)): MLGRRARRRGRGRRRPA
Assay: pull-down; Biotin-Dleu2-17aa incubated with EL4 cell lysate, streptavidin-agarose, SDS-PAGE, western blot for Smad3; only the target purified

binding: binds
Substance: SMAD Family Member 3 (Smad3), endogenous (from UniProt Q8BUN5 1-425)
